From the supplement of paper PMC12067093, “Discovery and optimisation of a covalent ligand for TRIM25 and its application to targeted protein ubiquitination” (Chemical Science, 2025) come the findings set out here.

The chains behind the UniProt entries cited, without tags or fusion partners. Where a name states a change or a piece, a line headed by the entry shows the natural chain unless it says otherwise.
UniProt Q92547, whole entry, looked up: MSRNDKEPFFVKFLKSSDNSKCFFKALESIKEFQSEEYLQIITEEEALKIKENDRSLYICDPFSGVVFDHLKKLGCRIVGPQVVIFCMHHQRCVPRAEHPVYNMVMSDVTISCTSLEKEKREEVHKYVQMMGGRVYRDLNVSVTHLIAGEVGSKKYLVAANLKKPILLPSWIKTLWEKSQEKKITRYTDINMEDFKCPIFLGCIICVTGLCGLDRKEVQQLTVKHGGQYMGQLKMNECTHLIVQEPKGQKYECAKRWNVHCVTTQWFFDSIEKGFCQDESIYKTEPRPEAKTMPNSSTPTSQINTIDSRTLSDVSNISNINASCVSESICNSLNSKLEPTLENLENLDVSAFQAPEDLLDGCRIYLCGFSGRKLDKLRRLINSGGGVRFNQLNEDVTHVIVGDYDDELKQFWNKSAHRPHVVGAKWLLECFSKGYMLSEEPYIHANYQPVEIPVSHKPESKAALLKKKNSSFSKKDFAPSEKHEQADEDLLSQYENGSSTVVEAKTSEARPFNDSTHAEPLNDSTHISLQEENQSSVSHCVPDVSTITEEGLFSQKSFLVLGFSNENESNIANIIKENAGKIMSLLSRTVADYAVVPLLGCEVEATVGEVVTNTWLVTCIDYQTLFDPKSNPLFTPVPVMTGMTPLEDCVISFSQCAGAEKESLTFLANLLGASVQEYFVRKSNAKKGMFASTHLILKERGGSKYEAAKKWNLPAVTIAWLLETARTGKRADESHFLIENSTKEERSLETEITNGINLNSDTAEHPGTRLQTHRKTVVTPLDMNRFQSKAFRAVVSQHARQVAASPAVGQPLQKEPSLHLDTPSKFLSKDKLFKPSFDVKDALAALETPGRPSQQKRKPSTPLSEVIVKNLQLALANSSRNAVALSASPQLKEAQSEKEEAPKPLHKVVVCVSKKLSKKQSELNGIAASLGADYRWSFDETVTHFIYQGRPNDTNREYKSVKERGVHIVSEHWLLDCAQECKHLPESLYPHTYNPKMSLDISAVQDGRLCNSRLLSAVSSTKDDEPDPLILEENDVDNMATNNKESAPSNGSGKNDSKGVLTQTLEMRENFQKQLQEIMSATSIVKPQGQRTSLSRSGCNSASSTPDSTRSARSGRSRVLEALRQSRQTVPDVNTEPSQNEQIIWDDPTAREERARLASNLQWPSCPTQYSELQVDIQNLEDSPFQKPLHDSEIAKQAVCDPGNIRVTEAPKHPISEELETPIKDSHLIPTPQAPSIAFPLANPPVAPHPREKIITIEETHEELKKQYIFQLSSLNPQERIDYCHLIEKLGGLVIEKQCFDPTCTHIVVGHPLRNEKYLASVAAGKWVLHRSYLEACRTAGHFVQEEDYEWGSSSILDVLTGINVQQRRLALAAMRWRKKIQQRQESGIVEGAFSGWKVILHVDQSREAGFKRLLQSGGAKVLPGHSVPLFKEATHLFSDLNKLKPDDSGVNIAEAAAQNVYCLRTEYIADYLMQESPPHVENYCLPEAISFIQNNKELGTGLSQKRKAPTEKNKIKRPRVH
UniProt P11388: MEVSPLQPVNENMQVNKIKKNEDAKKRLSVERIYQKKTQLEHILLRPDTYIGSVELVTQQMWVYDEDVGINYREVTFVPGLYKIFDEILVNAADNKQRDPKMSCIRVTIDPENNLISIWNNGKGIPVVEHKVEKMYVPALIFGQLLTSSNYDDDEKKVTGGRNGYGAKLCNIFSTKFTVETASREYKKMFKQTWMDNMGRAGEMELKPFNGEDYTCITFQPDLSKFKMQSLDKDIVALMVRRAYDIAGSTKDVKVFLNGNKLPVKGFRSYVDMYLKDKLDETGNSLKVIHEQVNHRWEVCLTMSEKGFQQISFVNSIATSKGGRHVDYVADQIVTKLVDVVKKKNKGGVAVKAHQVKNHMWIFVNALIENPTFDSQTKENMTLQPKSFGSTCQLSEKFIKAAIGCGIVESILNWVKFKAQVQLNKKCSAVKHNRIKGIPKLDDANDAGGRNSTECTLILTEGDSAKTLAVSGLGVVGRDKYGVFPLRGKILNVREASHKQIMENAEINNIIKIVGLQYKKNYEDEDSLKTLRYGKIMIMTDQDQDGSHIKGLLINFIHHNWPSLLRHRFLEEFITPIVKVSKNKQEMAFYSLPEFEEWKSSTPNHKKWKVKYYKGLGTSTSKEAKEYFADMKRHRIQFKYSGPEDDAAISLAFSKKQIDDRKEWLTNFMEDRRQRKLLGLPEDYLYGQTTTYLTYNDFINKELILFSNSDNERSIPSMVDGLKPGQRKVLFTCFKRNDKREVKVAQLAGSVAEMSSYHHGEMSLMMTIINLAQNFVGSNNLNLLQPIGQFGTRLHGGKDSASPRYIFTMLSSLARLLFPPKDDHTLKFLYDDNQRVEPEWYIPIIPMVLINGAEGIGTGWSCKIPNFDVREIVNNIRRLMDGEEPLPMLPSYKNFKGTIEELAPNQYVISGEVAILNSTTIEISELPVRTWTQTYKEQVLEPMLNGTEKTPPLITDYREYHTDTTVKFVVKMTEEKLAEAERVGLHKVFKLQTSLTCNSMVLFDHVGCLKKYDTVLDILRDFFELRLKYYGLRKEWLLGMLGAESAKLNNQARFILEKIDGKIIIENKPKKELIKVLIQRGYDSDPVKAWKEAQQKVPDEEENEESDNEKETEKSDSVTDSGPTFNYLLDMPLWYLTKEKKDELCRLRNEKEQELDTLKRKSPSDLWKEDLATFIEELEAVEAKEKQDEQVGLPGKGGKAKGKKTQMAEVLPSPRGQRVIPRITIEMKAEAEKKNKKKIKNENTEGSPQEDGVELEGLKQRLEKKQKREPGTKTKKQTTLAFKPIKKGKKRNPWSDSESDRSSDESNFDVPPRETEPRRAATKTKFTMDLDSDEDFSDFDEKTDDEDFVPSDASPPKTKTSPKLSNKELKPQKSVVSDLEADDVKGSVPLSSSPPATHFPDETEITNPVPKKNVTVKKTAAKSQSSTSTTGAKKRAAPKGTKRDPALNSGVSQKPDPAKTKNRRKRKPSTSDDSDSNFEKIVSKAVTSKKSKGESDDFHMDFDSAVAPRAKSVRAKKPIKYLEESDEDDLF
UniProt P11387: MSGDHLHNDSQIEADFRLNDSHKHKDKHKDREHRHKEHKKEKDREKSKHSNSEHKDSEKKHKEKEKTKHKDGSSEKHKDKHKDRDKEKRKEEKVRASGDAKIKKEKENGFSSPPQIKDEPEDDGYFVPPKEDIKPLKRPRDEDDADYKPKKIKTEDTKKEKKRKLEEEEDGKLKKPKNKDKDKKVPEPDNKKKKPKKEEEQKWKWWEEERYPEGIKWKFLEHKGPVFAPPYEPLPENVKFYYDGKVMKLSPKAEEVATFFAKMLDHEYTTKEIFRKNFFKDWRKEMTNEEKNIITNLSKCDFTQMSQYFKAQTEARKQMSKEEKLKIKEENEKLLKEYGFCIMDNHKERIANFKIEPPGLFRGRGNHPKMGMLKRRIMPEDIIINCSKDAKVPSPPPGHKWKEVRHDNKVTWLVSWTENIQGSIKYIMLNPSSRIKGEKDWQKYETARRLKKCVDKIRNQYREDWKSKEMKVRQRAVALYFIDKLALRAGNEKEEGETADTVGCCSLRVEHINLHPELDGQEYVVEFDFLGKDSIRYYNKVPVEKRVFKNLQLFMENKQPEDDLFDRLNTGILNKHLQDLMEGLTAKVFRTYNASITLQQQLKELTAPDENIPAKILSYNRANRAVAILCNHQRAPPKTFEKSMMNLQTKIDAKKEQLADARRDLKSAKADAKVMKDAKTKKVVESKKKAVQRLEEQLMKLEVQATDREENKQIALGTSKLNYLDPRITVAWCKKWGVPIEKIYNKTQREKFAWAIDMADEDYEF
UniProt Q9Y490: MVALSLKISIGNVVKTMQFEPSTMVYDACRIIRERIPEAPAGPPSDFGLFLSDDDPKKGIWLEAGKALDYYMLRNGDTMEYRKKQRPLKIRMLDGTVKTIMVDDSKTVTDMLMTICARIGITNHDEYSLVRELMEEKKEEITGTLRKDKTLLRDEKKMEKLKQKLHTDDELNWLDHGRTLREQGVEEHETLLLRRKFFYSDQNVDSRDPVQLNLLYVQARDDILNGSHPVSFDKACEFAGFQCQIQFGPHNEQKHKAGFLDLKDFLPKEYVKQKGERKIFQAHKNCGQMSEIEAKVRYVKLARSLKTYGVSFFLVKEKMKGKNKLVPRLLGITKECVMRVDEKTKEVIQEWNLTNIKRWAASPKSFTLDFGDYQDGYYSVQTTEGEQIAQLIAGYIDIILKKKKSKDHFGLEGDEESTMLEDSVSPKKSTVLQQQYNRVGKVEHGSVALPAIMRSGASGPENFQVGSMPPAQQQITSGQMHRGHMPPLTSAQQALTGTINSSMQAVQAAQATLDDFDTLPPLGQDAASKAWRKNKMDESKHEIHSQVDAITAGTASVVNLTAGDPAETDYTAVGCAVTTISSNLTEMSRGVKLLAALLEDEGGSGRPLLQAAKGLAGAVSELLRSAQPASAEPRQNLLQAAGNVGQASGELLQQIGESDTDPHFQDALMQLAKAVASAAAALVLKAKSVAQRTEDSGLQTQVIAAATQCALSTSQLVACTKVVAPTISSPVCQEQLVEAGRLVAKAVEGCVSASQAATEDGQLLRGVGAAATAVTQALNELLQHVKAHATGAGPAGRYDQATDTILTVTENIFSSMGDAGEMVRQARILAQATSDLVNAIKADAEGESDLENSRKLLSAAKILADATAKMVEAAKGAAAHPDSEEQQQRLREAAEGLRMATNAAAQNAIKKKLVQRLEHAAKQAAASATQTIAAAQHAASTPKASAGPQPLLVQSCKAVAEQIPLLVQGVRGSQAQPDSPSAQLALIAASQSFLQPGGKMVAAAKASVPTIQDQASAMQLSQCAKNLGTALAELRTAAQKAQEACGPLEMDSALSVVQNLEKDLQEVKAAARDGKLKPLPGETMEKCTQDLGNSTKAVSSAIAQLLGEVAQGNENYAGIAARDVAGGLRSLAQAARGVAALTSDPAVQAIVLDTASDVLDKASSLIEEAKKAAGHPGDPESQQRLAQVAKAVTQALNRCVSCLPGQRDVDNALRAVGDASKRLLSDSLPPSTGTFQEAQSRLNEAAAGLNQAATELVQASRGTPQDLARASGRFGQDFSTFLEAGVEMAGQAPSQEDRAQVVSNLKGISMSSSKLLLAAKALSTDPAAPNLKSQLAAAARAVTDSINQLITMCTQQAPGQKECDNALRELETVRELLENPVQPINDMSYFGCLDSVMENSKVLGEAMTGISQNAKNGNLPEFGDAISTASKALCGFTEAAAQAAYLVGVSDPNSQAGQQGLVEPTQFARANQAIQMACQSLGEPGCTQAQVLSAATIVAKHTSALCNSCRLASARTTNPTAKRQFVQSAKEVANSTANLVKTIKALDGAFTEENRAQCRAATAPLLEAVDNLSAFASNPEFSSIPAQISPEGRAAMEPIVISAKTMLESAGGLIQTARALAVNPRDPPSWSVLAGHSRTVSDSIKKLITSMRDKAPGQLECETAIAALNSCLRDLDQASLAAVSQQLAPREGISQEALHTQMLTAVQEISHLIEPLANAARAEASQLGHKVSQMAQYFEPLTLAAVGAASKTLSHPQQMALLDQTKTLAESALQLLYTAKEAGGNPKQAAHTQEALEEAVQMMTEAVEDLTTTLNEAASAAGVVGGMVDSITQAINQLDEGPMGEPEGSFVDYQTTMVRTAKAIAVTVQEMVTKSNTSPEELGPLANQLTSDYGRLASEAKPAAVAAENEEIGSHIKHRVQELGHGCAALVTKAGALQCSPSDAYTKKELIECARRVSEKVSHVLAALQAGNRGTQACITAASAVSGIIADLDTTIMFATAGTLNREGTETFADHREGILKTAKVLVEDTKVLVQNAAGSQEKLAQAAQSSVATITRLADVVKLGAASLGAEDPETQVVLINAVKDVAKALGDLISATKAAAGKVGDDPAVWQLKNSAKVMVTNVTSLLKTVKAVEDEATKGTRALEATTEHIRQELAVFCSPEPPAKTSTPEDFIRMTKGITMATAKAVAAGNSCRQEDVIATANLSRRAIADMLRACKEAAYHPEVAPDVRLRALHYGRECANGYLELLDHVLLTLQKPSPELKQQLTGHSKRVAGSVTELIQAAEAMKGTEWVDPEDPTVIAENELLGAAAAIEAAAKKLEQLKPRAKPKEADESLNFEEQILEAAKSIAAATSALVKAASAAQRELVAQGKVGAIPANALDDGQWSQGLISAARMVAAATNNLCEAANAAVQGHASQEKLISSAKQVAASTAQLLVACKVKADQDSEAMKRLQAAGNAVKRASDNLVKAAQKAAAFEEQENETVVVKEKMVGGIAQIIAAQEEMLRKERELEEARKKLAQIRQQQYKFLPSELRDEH
UniProt Q9Y3A6: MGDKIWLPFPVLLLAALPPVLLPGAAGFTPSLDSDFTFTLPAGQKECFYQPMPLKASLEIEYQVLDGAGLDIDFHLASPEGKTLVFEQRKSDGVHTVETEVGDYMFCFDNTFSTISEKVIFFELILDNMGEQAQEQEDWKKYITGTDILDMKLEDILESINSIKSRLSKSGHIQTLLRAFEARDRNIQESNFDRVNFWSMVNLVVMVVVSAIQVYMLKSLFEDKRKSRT

Compound in the experiment: CC1Cc2ccccc2N1C(=O)C1CCCN(C1)C(=O)CCl (mixture of isomers) [TRIM25 ligand 11 (diastereomer mixture)]
The experiment is described as follows: probe-labelled cysteine peptide fold change vs DMSO (competition) (log2 fold change); higher = less target engagement (more negative = stronger competition). The settings on record: THP-1, incubation time: 4 h.

This is one part of the list.
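Also: competitive chemoproteomic profiling in live THP-1 cells with an iodoacetamide desthiobiotin (IA-DTB) probe, comparing probe-labelled peptide intensities in compound-treated cells against DMSO-treated controls.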

For the target “TOPBP1_Q92547_1099_SGCNSASSTPDSTR (UniProt Q92547)”, the “probe-labelled cysteine peptide fold change” value (10 µM) was -0.0617 and the “probe-labelled cysteine peptide fold change” value (50 µM) is -0.174.

Regarding “TOP2A_P11388_733_KVLFTCFK (UniProt P11388)”, the “probe-labelled cysteine peptide fold change” value reads like this: (10 µM) -0.276; (50 µM) -0.314.

As for “TOPBP1_Q92547_430_WLLECFSK (UniProt Q92547)”, the “probe-labelled cysteine peptide fold change” value (10 µM) was -0.0487 and the “probe-labelled cysteine peptide fold change” value (50 µM) is -0.183.

“TP53BP1_Q12888_1040_TMSVLSCICEAR (UniProt Q12888)”: the “probe-labelled cysteine peptide fold change” value (10 µM) is -0.0737 and the “probe-labelled cysteine peptide fold change” value (50 µM) was -0.52.

In the case of “TLR2_O60603_353_VFLVPCLLSQHLK (UniProt O60603)”, the “probe-labelled cysteine peptide fold change” value is -0.0371 (10 µM) and -0.132 (50 µM).

In the case of “TP53BP2_Q13625_1083_EGDCMTIIHREDEDEIEWWWAR (UniProt Q13625)”, the “probe-labelled cysteine peptide fold change” value reads like this: (10 µM) -0.000192; (50 µM) -0.29.

Consider “TMA16_Q96EY4_162_ICANDAIPK (UniProt Q96EY4)”, for which the “probe-labelled cysteine peptide fold change” value reads like this: (10 µM) -0.0162; (50 µM) 0.0122.

Turning to “TMEM120B_A0PK00_8_CEREWHELEGEFQELQETHR (UniProt A0PK00)”, the “probe-labelled cysteine peptide fold change” value is -0.18 (10 µM) and -0.0746 (50 µM).

Take “TONSL_Q96HA7_596+608_FLLDHGAAVDDPGGQGCEGITPLHDALNCGHFEVAELLLER (UniProt Q96HA7)”: the “probe-labelled cysteine peptide fold change” value was 0.0631 (10 µM) and -0.336 (50 µM).

As to “TOP3B_O95985_522_HGIGTDASIPVHINNICQR (UniProt O95985)”, the “probe-labelled cysteine peptide fold change” value was -0.0303 (10 µM) and 0.064 (50 µM).

Turning to “TMEM120B_A0PK00_43_QKLEELAALQTLCSSSISK (UniProt A0PK00)”, the “probe-labelled cysteine peptide fold change” value reads like this: (10 µM) -0.035; (50 µM) -0.0472.

For “TONSL_Q96HA7_66_ADDPLGCAVAHR (UniProt Q96HA7)”, the “probe-labelled cysteine peptide fold change” value reads like this: (10 µM) -0.0555; (50 µM) 0.0509.

In the case of “TONSL_Q96HA7_596_FLLDHGAAVDDPGGQGCEGITPLHDALNCGHFEVAELLLER (UniProt Q96HA7)”, the “probe-labelled cysteine peptide fold change” value (10 µM) was determined as 0.33 and the “probe-labelled cysteine peptide fold change” value (50 µM) was 0.196.

For the target “TNKS1BP1_Q9C0C2_136_CAAPGGVR (UniProt Q9C0C2)”, the “probe-labelled cysteine peptide fold change” value is -0.0427 (10 µM) and -0.221 (50 µM).

For the target “TOP2A_P11388_997+1008_LQTSLTCNSMVLFDHVGCLK (UniProt P11388)”, the “probe-labelled cysteine peptide fold change” value (10 µM) was determined as 0.072 and the “probe-labelled cysteine peptide fold change” value (50 µM) was found to be 0.179.

“TOP1_P11387_341_EYGFCIMDNHK (UniProt P11387)”: the “probe-labelled cysteine peptide fold change” value (10 µM) was -0.0915 and the “probe-labelled cysteine peptide fold change” value (50 µM) is -0.217.

Take TNS3_Q68CZ2_88_MCTICK (UniProt Q68CZ2): the “probe-labelled cysteine peptide fold change” value is -0.134 (10 µM) and -0.0632 (50 µM).

Turning to “TMEM131L_A2VDJ0_352_IASFTCK (UniProt A2VDJ0)”, the “probe-labelled cysteine peptide fold change” value (10 µM) was -0.0719 and the “probe-labelled cysteine peptide fold change” value (50 µM) stood at 0.0434.

As to “TLN1_Q9Y490_956_ASAGPQPLLVQSCK (UniProt Q9Y490)”, the “probe-labelled cysteine peptide fold change” value (10 µM) was -0.192 and the “probe-labelled cysteine peptide fold change” value (50 µM) was -0.195.

As for “TMEM94_Q12767_459_SFCHPEPHER (UniProt Q12767)”, the “probe-labelled cysteine peptide fold change” value is 0.249 (10 µM) and -0.0281 (50 µM).

“TMEM63B_Q5T3F8_267_HFEEAYPNCTVLEAR (UniProt Q5T3F8)”: the “probe-labelled cysteine peptide fold change” value (10 µM) is 0.203 and the “probe-labelled cysteine peptide fold change” value (50 µM) stood at 0.178.

In the case of “TOMM40_O96008_354_FQCGFGLTIG (UniProt O96008)”, the “probe-labelled cysteine peptide fold change” value (10 µM) was -0.0985 and the “probe-labelled cysteine peptide fold change” value (50 µM) was 0.0231.

“TMEM173_Q86WV6_148_GLAPAEISAVCEK (UniProt Q86WV6)”: the “probe-labelled cysteine peptide fold change” value (10 µM) came to 0.0912 and the “probe-labelled cysteine peptide fold change” value (50 µM) worked out at 0.22.

“TMX2_Q9Y320_186_YNCTGLNFGK (UniProt Q9Y320)”: the “probe-labelled cysteine peptide fold change” value runs as follows: (10 µM) 0.0602; (50 µM) 0.116.

With “TMED5_Q9Y3A6_107_KSDGVHTVETEVGDYMFCFDNTFSTISEK (UniProt Q9Y3A6)”, the “probe-labelled cysteine peptide fold change” value reads like this: (10 µM) -0.122; (50 µM) -0.241.

In the case of “TLN1_Q9Y490_2243_ECANGYLELLDHVLLTLQK (UniProt Q9Y490)”, the “probe-labelled cysteine peptide fold change” value by setting is: (10 µM) -0.0271; (50 µM) 0.00833.

For the target “TMEM248_Q9NWD8_305_QSNPEFCPEK (UniProt Q9NWD8)”, the “probe-labelled cysteine peptide fold change” value stood at 0.202 (10 µM) and 0.0568 (50 µM).

Take “TPI1_P60174_164_VAHALAEGLGVIACIGEK (UniProt P60174)”: the “probe-labelled cysteine peptide fold change” value by setting is: (10 µM) -0.0164; (50 µM) -0.0769.

For “TNPO1_Q92973_862_DDLRDMFCK (UniProt Q92973)”, the “probe-labelled cysteine peptide fold change” value runs as follows: (10 µM) 0.114; (50 µM) 0.132.

“TMEM106B_Q9NUM4_253_YQYVDCGR (UniProt Q9NUM4)”: the “probe-labelled cysteine peptide fold change” value reads like this: (10 µM) 0.0737; (50 µM) 0.0561.

Consider “TONSL_Q96HA7_561_DYCGWTPLHEACNYGHLEIVR (UniProt Q96HA7)”, for which the “probe-labelled cysteine peptide fold change” value was 0.18 (10 µM) and 0.0921 (50 µM).

As for “TMED8_Q6PL24_161_KVSPPLMAPPCIWTFAK (UniProt Q6PL24)”, the “probe-labelled cysteine peptide fold change” value was -0.212 (10 µM) and -0.371 (50 µM).

Turning to “TONSL_Q96HA7_30_EEAALCHQLGELLAGHGR (UniProt Q96HA7)”, the “probe-labelled cysteine peptide fold change” value runs as follows: (10 µM) 0.02; (50 µM) 0.0679.

As to “TMPO_P42167_363_EMFPYEASTPTGISASCR (UniProt P42167)”, the “probe-labelled cysteine peptide fold change” value is, setting by setting: (10 µM) -0.17; (50 µM) -0.148.

Regarding “TONSL_Q96HA7_30_REEAALCHQLGELLAGHGR (UniProt Q96HA7)”, the “probe-labelled cysteine peptide fold change” value is -0.0229 (10 µM) and 0.136 (50 µM).

Take “TOR2A_Q5JU69_35+43_CTLGAFCECDFRPDLPGLECDLAQHLAGQHLAK (UniProt Q5JU69)”: the “probe-labelled cysteine peptide fold change” value by setting is: (10 µM) 0.0441; (50 µM) 0.314.

On to “TOMM40_O96008_76_TPGAATASASGAAEDGACGCLPNPGTFEECHRK (UniProt O96008)”, for which the “probe-labelled cysteine peptide fold change” value reads like this: (10 µM) -0.21; (50 µM) -0.316.

For “TOP2A_P11388_170_LCNIFSTK (UniProt P11388)”, the “probe-labelled cysteine peptide fold change” value is 0.00483 (10 µM) and -0.016 (50 µM).

As to “TOMM34_Q15785_250_DCTEALK (UniProt Q15785)”, the “probe-labelled cysteine peptide fold change” value reads like this: (10 µM) -0.149; (50 µM) -0.0878.

“TNFAIP2_Q03169_45_GLANVFCVFTK (UniProt Q03169)”: the “probe-labelled cysteine peptide fold change” value is, setting by setting: (10 µM) -0.27; (50 µM) -0.274.

As to “TOP1_P11387_505_EEGETADTVGCCSLR (UniProt P11387)”, the “probe-labelled cysteine peptide fold change” value is, setting by setting: (10 µM) -0.199; (50 µM) 0.00926.
